According to paper PMC4586916:
No constants are given. Whether binding was seen depends on the method and setting. Binding seen in cells or lysates may run through a third protein. Here binding means that the protein was enriched with, or labelled near, the bait; the list need not be complete. Values belong to the molecule of their own block, whether it stands above or below them.

By UniProt entry, the sequences of proteins in these tests, tags left out. Where a name states a change or a piece, a line headed by the entry shows the natural chain unless it says otherwise. Chains listed by the source or under a name are the forms on record and can include a tag or linker. Residues count along the entry.
UniProt Q9UPP1, residues 37-1060: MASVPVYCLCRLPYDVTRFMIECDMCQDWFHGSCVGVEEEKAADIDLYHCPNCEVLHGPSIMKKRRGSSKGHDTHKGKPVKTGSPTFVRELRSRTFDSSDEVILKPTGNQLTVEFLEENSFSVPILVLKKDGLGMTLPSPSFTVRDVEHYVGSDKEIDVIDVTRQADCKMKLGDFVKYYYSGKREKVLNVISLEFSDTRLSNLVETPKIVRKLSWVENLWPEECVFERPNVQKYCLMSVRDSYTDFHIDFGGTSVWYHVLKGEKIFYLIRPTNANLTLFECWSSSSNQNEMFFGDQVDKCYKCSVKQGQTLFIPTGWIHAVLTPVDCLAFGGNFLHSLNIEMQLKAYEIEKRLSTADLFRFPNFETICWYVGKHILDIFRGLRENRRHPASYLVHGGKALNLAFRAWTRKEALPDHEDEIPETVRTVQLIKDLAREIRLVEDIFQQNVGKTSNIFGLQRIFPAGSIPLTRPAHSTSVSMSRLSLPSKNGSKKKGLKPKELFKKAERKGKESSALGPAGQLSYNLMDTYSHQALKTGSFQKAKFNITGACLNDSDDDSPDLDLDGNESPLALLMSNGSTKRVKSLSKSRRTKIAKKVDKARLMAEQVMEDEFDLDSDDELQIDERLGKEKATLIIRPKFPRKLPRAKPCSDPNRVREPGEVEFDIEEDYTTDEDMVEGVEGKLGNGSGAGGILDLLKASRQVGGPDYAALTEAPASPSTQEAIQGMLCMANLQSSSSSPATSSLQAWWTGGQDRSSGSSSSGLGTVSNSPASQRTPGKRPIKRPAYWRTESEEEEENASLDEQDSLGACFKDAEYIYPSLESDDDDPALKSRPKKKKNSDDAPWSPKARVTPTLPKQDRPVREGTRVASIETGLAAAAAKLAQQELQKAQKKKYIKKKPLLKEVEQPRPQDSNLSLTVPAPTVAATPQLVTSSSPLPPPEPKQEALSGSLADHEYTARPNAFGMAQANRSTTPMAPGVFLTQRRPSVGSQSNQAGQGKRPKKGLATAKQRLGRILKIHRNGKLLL
TIP60−YFP (Q92993, form named): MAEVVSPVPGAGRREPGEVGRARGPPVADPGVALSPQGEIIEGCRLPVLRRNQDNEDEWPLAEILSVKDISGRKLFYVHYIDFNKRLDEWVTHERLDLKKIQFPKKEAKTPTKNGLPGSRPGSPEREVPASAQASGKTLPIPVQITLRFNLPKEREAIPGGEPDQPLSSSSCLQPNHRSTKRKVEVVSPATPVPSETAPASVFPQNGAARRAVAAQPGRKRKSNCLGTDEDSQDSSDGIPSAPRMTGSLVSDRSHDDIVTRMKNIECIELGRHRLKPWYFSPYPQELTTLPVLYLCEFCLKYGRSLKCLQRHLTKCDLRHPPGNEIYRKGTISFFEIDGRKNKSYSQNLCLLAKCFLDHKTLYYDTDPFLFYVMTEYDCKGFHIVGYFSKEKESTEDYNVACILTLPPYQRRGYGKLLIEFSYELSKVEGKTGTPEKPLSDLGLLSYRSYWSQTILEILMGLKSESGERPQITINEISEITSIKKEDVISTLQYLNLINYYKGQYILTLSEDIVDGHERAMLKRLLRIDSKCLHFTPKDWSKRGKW
UniProt O00571: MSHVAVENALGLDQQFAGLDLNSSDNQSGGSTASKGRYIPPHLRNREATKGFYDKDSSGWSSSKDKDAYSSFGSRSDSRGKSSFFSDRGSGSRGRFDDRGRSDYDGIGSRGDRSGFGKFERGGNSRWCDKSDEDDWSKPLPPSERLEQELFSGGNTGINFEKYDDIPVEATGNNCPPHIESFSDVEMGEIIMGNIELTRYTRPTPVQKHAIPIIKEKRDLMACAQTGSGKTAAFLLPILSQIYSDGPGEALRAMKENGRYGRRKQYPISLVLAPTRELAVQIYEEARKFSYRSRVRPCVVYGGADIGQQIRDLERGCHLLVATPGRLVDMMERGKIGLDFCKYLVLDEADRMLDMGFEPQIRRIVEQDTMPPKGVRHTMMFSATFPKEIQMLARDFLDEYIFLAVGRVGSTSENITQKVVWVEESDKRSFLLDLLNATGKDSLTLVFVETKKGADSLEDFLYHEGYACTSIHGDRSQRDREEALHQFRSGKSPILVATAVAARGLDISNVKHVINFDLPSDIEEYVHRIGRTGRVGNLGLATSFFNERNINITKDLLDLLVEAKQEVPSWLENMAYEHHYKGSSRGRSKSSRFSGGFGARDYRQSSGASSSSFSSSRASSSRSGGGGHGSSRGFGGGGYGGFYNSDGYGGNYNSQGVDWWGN
UniProt Q92841: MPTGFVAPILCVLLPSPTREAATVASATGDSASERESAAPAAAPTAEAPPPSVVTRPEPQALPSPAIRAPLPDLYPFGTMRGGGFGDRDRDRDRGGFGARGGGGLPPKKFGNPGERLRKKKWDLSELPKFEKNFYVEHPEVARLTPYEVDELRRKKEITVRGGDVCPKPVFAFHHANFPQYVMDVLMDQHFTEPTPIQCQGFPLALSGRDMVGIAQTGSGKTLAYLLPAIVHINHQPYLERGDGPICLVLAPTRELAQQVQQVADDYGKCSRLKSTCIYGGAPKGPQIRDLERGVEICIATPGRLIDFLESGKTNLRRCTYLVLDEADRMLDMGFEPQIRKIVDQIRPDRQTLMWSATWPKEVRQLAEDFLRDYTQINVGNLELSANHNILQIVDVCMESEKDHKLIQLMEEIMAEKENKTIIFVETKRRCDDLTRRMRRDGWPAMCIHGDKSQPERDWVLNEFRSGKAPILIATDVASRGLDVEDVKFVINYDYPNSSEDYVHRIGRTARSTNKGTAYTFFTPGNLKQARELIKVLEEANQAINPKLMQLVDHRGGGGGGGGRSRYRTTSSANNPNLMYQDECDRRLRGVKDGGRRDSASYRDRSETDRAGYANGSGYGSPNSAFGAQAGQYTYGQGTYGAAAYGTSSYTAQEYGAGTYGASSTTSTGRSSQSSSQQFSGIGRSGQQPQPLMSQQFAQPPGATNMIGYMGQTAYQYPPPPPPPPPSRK
UniProt Q9NR30: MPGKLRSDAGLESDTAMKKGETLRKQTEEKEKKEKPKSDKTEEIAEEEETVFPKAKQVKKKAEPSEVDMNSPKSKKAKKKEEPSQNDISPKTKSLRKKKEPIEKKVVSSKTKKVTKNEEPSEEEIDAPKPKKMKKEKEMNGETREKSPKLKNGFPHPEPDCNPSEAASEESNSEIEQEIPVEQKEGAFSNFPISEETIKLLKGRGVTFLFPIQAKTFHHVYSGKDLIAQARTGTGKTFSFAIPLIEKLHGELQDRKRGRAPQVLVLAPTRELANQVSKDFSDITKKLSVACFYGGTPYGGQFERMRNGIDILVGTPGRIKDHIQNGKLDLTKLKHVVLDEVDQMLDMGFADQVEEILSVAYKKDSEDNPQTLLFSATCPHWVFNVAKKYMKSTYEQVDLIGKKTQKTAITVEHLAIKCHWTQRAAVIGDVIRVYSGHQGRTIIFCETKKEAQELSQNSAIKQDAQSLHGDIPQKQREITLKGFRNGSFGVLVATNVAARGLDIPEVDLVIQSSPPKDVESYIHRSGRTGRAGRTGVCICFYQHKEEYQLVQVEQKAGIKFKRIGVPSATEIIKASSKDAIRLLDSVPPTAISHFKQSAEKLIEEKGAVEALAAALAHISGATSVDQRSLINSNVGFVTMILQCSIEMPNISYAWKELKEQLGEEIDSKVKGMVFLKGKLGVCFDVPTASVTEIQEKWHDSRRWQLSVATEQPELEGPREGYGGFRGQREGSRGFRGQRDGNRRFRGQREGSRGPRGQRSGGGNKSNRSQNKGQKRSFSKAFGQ

Columns and labels:
[1] = biological target: PHF8−YFP (human) (UniProt Q9UPP1); experiment: affinity purification with mass spectrometry; anti-GFP immunoprecipitation of nuclear extracts from Hek293T cells transfected with PHF8−YFP or TIP60−YFP, pre-cleared with rabbit IgG; gel bands present in the PHF8/TIP60 IP but not in the control YFP IP were excised; nanoLC-MS/MS, IPI human database
[2] = biological target: TIP60−YFP (UniProt Q92993); experiment: as above

binding [1]: binds
binding [2]: binds
Molecule: ATP-dependent RNA helicase DDX3X (from UniProt O00571 1-662)

binding [1]: binds
binding [2]: binds
Molecule: ATP-dependent RNA helicase DDX17 (from UniProt Q92841 1-729)

binding [1]: binds
binding [2]: binds
Molecule: ATP-dependent RNA helicase DDX21 (from UniProt Q9NR30 1-783)

binding [1]: binds
binding [2]: binds
B1: NONO (non-POU domain containing, octamer-binding) (protein, UniProt Q15233 1-471)
chain: MQSNKTFNLEKQNHTPRKHHQHHHQQQHHQQQQQQPPPPPIPANGQQASSQNEGLTIDLKNFRKPGEKTFTQRSRLFVGNLPPDITEEEMRKLFEKYGKAGEVFIHKDKGFGFIRLETRTLAEIAKVELDNMPLRGKQLRVRFACHSASLTVRNLPQYVSNELLEEAFSVFGQVERAVVIVDDRGRPSGKGIVEFSGKPAARKALDRCSEGSFLLTTFPRPVTVEPMDQLDDEEGLPEKLVIKNQQFHKEREQPPRFAQPGSFEYEYAMRWKALIEMEKQQQDQVDRNIKEAREKLEMEMEAARHEHQVMLMRQDLMRRQEELRRMEELHNQEVQKRKQLELRQEEERRRREEEMRRQQEEMMRRQQEGFKGTFPDAREQEIRMGQMAMGGAMGINNRGAMPPAPVPAGTPAPPGPATMMPDGTLGLTPPTTERFGQAATMEGIGAIGGTPPAFNRAAPGAEFAPNKRRRY
